Experimental data as given in patent US20240174733A1 (ACCELERON PHARMA, published 2024).
Results are given in words; binding and its absence hold for the method and conditions named. Some results given as binding are weak or reduced against the parent protein; the word gives no strength.

Protein sequences, listed by entry. Tags and fused reporters are not part of them. Lines headed by an entry give the natural chain unless they say otherwise; changes in a name come on top. Residues count along the entry.
UniProt P22004, residues 382-513: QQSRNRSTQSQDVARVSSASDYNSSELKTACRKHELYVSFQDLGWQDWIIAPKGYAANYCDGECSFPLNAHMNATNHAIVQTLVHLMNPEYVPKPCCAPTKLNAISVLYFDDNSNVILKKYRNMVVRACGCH
UniProt P27037: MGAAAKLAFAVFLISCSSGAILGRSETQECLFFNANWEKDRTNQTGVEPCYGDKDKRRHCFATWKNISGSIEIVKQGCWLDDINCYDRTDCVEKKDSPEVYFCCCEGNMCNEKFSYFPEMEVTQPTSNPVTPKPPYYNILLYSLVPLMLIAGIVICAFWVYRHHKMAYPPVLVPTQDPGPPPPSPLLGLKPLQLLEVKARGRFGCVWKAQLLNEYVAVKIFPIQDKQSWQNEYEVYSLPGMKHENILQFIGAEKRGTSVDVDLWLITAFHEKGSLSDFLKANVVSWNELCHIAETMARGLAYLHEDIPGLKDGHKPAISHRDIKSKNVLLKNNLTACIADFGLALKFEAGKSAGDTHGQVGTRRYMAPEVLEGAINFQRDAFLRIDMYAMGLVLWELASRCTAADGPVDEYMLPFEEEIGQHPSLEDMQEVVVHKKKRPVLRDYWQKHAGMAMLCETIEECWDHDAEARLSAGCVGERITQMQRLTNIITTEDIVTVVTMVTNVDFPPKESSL

Biological target: BMP6 (UniProt P22004)
Assay: similar binding assay (Biacore)

ActRIIA-mFc (from UniProt P27037 21-135) (Fc fusion)
binding: binds
